# Reference: article PMC4111287
# No constants are given. Whether binding was seen depends on the method and setting.
# Target: soluble human PEX3 (reading frame from G25, C235S) (human) (UniProt P56589)
# Test: native MS; each protein alone, nano-electrospray under conditions that preserve non-covalent interactions; monomers analysed at a concentration five-fold higher than the 10 µM of the complex; both purified
binder,measurement,value
"soluble human PEX3 (reading frame from G25, C235S) (domain or fragment, UniProt P56589 25-373) GVYILGKYGQKKIREIQEREAAEYIAQARRQYHFESNQRTCNMTVLSMLPTLREALMQQLNSESLTALLKNRPSNKLEIWEDLKIISFTRSTVAVYSTCMLVVLLRVQLNIIGGYIYLDNAAVGKNGTTILAPPDVQQQYLSSIQHLLGDGLTELITVIKQAVQKVLGSVSLKHSLSLLDLEQKLKEIRNLVEQHKSSSWINKDGSKPLLSHYMMPDEETPLAVQACGLSPRDITTIKLLNETRDMLESPDFSTVLNTCLNRGFSRLLDNMAEFFRPTEQDLQHGNSMNSLSSVSLPLAKIIPIVNGQIHSVCSETPSHFVQDLLTMEQVKDFAANVYEAFSTPQQLEK",binding,no binding (tested: five-fold higher than 10 µM)
